Reference: PMC5772480, “Galectin-13, a different prototype galectin, does not bind β-galacto-sides and forms dimers via intermolecular disulfide bridges between Cys-136 and Cys-138” (Scientific Reports, 2018)
These are yes or no findings as the source states them, for the method shown. Some binding calls cover weakened binding; strength is not graded here.

Molecular target: T1, Galectin-13 (wild type) (human), Q9UHV8
T1 chain: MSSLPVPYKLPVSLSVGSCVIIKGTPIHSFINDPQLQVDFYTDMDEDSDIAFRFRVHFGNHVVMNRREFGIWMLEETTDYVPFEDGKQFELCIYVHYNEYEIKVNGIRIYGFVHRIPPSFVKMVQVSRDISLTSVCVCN
Assay: crystal structure; Gal-13 crystals from 0.1 M Tris-HCl pH 8.5, 0.05 M lactose, 0.2 M MgCl2, 30% PEG 4000, room temperature; one molecule in the asymmetric unit, homodimer with twofold symmetry; both purified
Conditions: remark: other sources report otherwise

binding: binds
B1: Galectin-13 (wild type), Q9UHV8 1-139 (natural protein)
chain: MSSLPVPYKLPVSLSVGSCVIIKGTPIHSFINDPQLQVDFYTDMDEDSDIAFRFRVHFGNHVVMNRREFGIWMLEETTDYVPFEDGKQFELCIYVHYNEYEIKVNGIRIYGFVHRIPPSFVKMVQVSRDISLTSVCVCN
modifications: here or on the partner: intermolecular disulfide bonds Cys136-Cys138' and Cys138-Cys136' in the dimer; intermolecular disulfide bonds Cys136-Cys138' and Cys138-Cys136' in the dimer
